Measurements reported in PubChem BioAssay AID504764 (Drosophila RNAi Screening Center, 2011).
The deposit covers about 22,000 reagents; shown is a random part of those with a known target gene and a result. Of all reagents, 403 (1.9%) were called active. 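Unnormalised raw counts per well; ratio z-scores behind the hit calls and whether each hit raises or lowers signal are not deposited.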 Reagents against one gene are numbered here. Names joined by + are all predicted targets of the reagent. Not given: the amount of reagent.

Screen: 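Genes whose knock-down alters Notch-dependent transcription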 (primary screen)
Cell system: Drosophila Kc167 cells
Reagent: long dsRNA against Drosophila genes
Time to read-out: about 5 days (4 days dsRNA, then 24 h after transfection)
Treatment: transfection of constitutively active membrane-tethered Notch lacking the extracellular domain, read 24 h later
Measurement: 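Light from a Notch-responsive E(spl)m3 luciferase reporter under active Notch, with control-promoter and no-Notch reporter wells to normalise; raw counts from paired wells a and b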
Reading the numbers: induced reporter light, run 1, well a and induced reporter light, run 1, well b: higher = more light from the Notch target reporter with active Notch; control promoter light, run 1, well a and control promoter light, run 1, well b: higher = more light from the viral control promoter (cell number, transfection, viability); uninduced reporter light, run 1, well a: higher = more light from the Notch target reporter without active Notch
Rule for the call: 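Hit if the duplicate-averaged log2 ratio of induced to control-promoter light gives a plate-wise z beyond ±2, or induced to uninduced beyond ±1.8; weak-control or discordant-duplicate wells dropped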
Calls: active = modifier hit (raised or lowered Notch signal); inactive = not a hit

Gene	dsRNA no.	induced reporter light, run 1, well a	induced reporter light, run 1, well b	control promoter light, run 1, well a	control promoter light, run 1, well b	uninduced reporter light, run 1, well a	Outcome
CG34169	1	65870	78645	72810	80870	7885	inactive
Spn43Ad	1	1.91e5	1.80e5	2.45e5	2.42e5	15665	inactive
scpr-A + scpr-C	1	1.09e5	1.13e5	1.25e5	79115	6315	inactive
sra	1	2.33e5	2.00e5	2.26e5	2.37e5	18555	inactive
Gr22f	1	1.15e5	97330	1.48e5	1.58e5	8020	inactive
dsd	1	2.68e5	1.74e5	1.87e5	2.37e5	18335	inactive
dsd	2	39740	41110	43455	45835	3130	inactive
Scgalpha	1	1.74e5	1.94e5	1.09e5	1.64e5	25500	inactive
CG3368	1	1.80e5	1.91e5	2.57e5	2.53e5	13460	inactive
CG34135	1	1.93e5	1.27e5	1.53e5	1.44e5	15025	inactive
Snx21	1	1.79e5	1.85e5	1.92e5	2.02e5	17725	inactive
Sec16	1	1.05e5	91005	1.44e5	1.30e5	6480	inactive
Sec16	2	1.17e5	1.31e5	2.04e5	2.43e5	9645	inactive
Wwox	1	1.78e5	1.94e5	1.88e5	1.90e5	18680	inactive
ssp	1	1.05e5	1.20e5	92780	43155	10632	inactive
CG31036	1	1.44e5	1.51e5	1.85e5	1.88e5	13270	inactive
CG31036	2	1.19e5	1.22e5	1.41e5	1.21e5	11945	inactive
frac	1	1.52e5	1.04e5	92695	51880	11085	inactive
CG2493	1	1.60e5	1.99e5	1.42e5	1.54e5	13500	inactive
CG4452	1	1.18e5	97260	74800	32930	10090	inactive
CG13186	1	84120	1.44e5	1.51e5	1.59e5	11745	inactive
Regnase-1	1	1.19e5	1.23e5	1.45e5	1.61e5	11540	inactive
Snmp1	1	1.89e5	1.93e5	2.65e5	2.69e5	18350	inactive
Cep89	1	72505	94795	97560	99465	8310	inactive
Cyp6a21	1	98860	84630	1.35e5	1.28e5	9615	inactive
CG15423	1	1.88e5	1.69e5	1.81e5	1.48e5	10750	inactive
Ser7	1	2.02e5	1.83e5	2.10e5	2.07e5	12945	inactive
CG5359	1	90130	1.23e5	1.32e5	1.23e5	8985	inactive
Trxr1	1	1.76e5	1.48e5	2.06e5	2.24e5	12150	inactive
CG6055	1	2.08e5	1.77e5	2.01e5	1.90e5	10630	inactive
Swip-1	1	2.85e5	2.01e5	1.79e5	1.75e5	17132	inactive
Swip-1	2	36600	34895	29295	43110	2145	inactive
CG11828	1	1.07e5	94675	1.18e5	1.40e5	9265	inactive
Proc	1	9255	9890	9432	7342	4255	inactive
HSPBAP1	1	1.67e5	1.26e5	1.77e5	1.72e5	12390	inactive
CG5089	1	1.20e5	1.03e5	2.13e5	2.79e5	9665	inactive
Noa36	1	1.76e5	1.79e5	2.11e5	2.25e5	13620	inactive
CG32750	1	1.24e5	1.23e5	1.82e5	1.92e5	9255	inactive
disco-r	1	1.14e5	68940	91815	78475	11505	inactive
disco-r	2	1.03e5	74305	96620	74205	11140	inactive
CG13527	1	1.46e5	1.38e5	1.68e5	1.50e5	12005	inactive
Capr	1	1.66e5	1.64e5	1.99e5	1.88e5	9165	inactive
CG13643	1	1.63e5	1.52e5	1.58e5	1.46e5	10920	inactive
CG13643	2	2.34e5	2.27e5	2.54e5	1.86e5	14480	inactive
Alg11	1	1.75e5	1.48e5	1.12e5	1.56e5	9935	inactive
CG18558	1	1.04e5	1.25e5	1.01e5	76500	7880	inactive
CG18558	2						inactive
Spn55B	1	70470	76185	92210	77370	5675	inactive
CG9922	1	2.01e5	2.14e5	1.43e5	1.84e5	15128	inactive
CG15029 (retired record)	1	1.27e5	1.11e5	1.42e5	1.10e5	12755	inactive

5 entries from above, showing only “control promoter light, run 1, well b”:
Sec16 #1	1.30e5
Sec16 #2	2.43e5
Wwox	1.90e5
ssp	43155
CG31036 #1	1.88e5
